No constants are given. Whether binding was seen depends on the method and setting. In cells and extracts the contact can be indirect. Some entries that bind do so weakly or less than the wild type. Sequences can lack the tags named with a protein.

This assay concerns the target T1, Dynamin (Drosophila, endogenous) (Drosophila (endogenous in fly heads)) (UniProt P27619).
T1 sequence: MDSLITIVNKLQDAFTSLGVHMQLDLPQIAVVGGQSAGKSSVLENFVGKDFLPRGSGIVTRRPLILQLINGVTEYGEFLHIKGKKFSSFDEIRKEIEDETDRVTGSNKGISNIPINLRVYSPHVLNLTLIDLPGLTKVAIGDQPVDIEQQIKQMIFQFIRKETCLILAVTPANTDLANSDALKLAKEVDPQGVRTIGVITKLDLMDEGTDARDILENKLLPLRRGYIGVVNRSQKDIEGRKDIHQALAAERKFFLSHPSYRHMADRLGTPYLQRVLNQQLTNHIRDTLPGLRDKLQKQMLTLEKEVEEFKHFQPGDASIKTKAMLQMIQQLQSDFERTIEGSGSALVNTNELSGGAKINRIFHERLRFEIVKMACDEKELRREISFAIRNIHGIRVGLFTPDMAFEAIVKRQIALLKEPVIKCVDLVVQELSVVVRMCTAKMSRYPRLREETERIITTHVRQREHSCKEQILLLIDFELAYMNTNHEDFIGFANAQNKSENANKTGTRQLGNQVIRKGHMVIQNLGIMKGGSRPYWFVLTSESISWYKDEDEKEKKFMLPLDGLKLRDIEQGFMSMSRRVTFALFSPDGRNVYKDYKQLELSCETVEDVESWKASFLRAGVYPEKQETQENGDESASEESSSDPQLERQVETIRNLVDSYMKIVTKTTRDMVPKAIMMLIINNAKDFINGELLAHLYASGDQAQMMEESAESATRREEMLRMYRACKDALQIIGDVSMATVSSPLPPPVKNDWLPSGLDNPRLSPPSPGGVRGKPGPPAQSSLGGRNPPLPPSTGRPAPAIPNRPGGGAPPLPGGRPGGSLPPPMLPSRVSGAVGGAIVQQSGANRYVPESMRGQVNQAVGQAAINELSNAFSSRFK
Description: co-IP.

B1: EndoA wild type (Drosophila Endophilin-A, GST tag cleaved) (natural protein, UniProt Q8T390 1-369, looked up)
chain: MAFAGLKKQINKANQYMTEKMGGAEGTKLDMDFMEMERKTDVTVELVEELQLKTKEFLQPNPTARAKMAAVKGISKLSGQAKSNTYPQPEGLLAECMLTYGKKLGEDNSVFAQALVEFGEALKQMADVKYSLDDNIKQNFLEPLHHMQTKDLKEVMHHRKKLQGRRLDFDCKRRRQAKDDEIRGAEDKFGESLQLAQVGMFNLLENDTEHVSQLVTFAEALYDFHSQCADVLRGLQETLQEKRSEAESRPRNEFVPKTLLDLNLDGGGGGLNEDGTPSHISSSASPLPSPMRSPAKSMAVTPQRQQQPCCQALYDFEPENPGELAFKENDIITLLNRVDDNWFEGAVNGRTGYFPQSYVQVQVPLPNGN
In the case of B1, the binding entry is “binds”.

B2: EndoA^D265A (Drosophila Endophilin-A D265A, GST tag cleaved) (natural protein, UniProt Q8T390 1-369, looked up)
chain: MAFAGLKKQINKANQYMTEKMGGAEGTKLDMDFMEMERKTDVTVELVEELQLKTKEFLQPNPTARAKMAAVKGISKLSGQAKSNTYPQPEGLLAECMLTYGKKLGEDNSVFAQALVEFGEALKQMADVKYSLDDNIKQNFLEPLHHMQTKDLKEVMHHRKKLQGRRLDFDCKRRRQAKDDEIRGAEDKFGESLQLAQVGMFNLLENDTEHVSQLVTFAEALYDFHSQCADVLRGLQETLQEKRSEAESRPRNEFVPKTLLDLNLAGGGGGLNEDGTPSHISSSASPLPSPMRSPAKSMAVTPQRQQQPCCQALYDFEPENPGELAFKENDIITLLNRVDDNWFEGAVNGRTGYFPQSYVQVQVPLPNGN
Regarding B2, the binding entry is listed as “binds”.

B3: EndoA^D265R (Drosophila Endophilin-A D265R, GST tag cleaved) (natural protein, UniProt Q8T390 1-369, looked up)
chain: MAFAGLKKQINKANQYMTEKMGGAEGTKLDMDFMEMERKTDVTVELVEELQLKTKEFLQPNPTARAKMAAVKGISKLSGQAKSNTYPQPEGLLAECMLTYGKKLGEDNSVFAQALVEFGEALKQMADVKYSLDDNIKQNFLEPLHHMQTKDLKEVMHHRKKLQGRRLDFDCKRRRQAKDDEIRGAEDKFGESLQLAQVGMFNLLENDTEHVSQLVTFAEALYDFHSQCADVLRGLQETLQEKRSEAESRPRNEFVPKTLLDLNLRGGGGGLNEDGTPSHISSSASPLPSPMRSPAKSMAVTPQRQQQPCCQALYDFEPENPGELAFKENDIITLLNRVDDNWFEGAVNGRTGYFPQSYVQVQVPLPNGN
In the case of B3, the binding result is on record as “binds”.
